Measurements reported in the supplement of paper PMC8007513.
Some of the results follow. Repeats are few or missing, and single values can be far off.

These compounds were tested on Saccharomyces cerevisiae BY4743 (assay: growth (OD600) with compound + IPBC relative to untreated control; higher = less growth inhibition). Conditions: compound concentration: 133 uM; IPBC concentration: 0.5 ug/ml; 20 h.
Method: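 NMCCC compounds (133 uM) combined with IPBC (0.5 ug/ml) against Saccharomyces cerevisiae BY4743 in YPD, 96-well plates. Growth was read as OD600 at 20 h and expressed as % of the untreated control. Single pass.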

Compound | growth
CC(Sc1nnc(NC2CC2)s1)C(=O)N(C)C1(C#N)CCCCC1 (stereo not given) + CCCCNC(=O)OCC#CI [3-iodo-2-propynyl butylcarbamate (IPBC)] | 113%
COc1cc(C(=O)OCC(=O)NC2(C#N)CCCC2)cc2c1OCCO2 + CCCCNC(=O)OCC#CI [3-iodo-2-propynyl butylcarbamate (IPBC)] | 114%
Cc1ccc(NC(=O)CCc2ccc(C)o2)c(Br)c1 + CCCCNC(=O)OCC#CI [3-iodo-2-propynyl butylcarbamate (IPBC)] | 82.5%
COc1cc(NC(=O)c2ccc3c(c2)NC(=O)CS3)cc(OC)c1OC + CCCCNC(=O)OCC#CI [3-iodo-2-propynyl butylcarbamate (IPBC)] | 107%
O=C(C1CCS(=O)(=O)C1)N1CCc2ccccc21 (stereo not given) + CCCCNC(=O)OCC#CI [3-iodo-2-propynyl butylcarbamate (IPBC)] | 97.6%
Cc1cc(NS(=O)(=O)c2ccc(NC(=O)N[C@H](C(=O)O)C(C)C)cc2)no1 + CCCCNC(=O)OCC#CI [3-iodo-2-propynyl butylcarbamate (IPBC)] | 97.3%
CN(CCNC(=O)N\C1=C\N(C)C(=O)C2=CC=CC=C12)C3CCCCC3 + CCCCNC(=O)OCC#CI [3-iodo-2-propynyl butylcarbamate (IPBC)] | 94.3%
CCOC(=O)c1ccc(NC(=O)NC2CC(=O)N(C3CCCC3)C2)cc1 (stereo not given) + CCCCNC(=O)OCC#CI [3-iodo-2-propynyl butylcarbamate (IPBC)] | 89%
CCCN(CC(=O)NC1=CC=CC=C1OC)C(=O)\C2=C\OCCO2 + CCCCNC(=O)OCC#CI [3-iodo-2-propynyl butylcarbamate (IPBC)] | 97%
CCN(CC)c1ccc2nnc(CCC(=O)NCc3ccccn3)n2n1 + CCCCNC(=O)OCC#CI [3-iodo-2-propynyl butylcarbamate (IPBC)] | 94.3%
CC(c1cccnc1)N(C(=O)Nc1ccc(Cl)cc1)C1CCCCC1 (stereo not given) + CCCCNC(=O)OCC#CI [3-iodo-2-propynyl butylcarbamate (IPBC)] | 91.1%
O=C(COc1ncnc2ccc(Br)cc12)NCC1CCCO1 (stereo not given) + CCCCNC(=O)OCC#CI [3-iodo-2-propynyl butylcarbamate (IPBC)] | 83.9%
CCOC(=O)C1=NOC\2=C1C(=O)N(C(C)C(=O)NC3=CC=CC(=C3C)Cl)C(=N2)\C (stereo not given) + CCCCNC(=O)OCC#CI [3-iodo-2-propynyl butylcarbamate (IPBC)] | 87.1%
COC(=O)[C@H](CCSC)NC(=O)Nc1ccc(N2CCC(C)CC2)c(Cl)c1 + CCCCNC(=O)OCC#CI [3-iodo-2-propynyl butylcarbamate (IPBC)] | 99.2%
Cc1nc(Cl)cc(NCC2COc3ccccc3O2)n1 (stereo not given) + CCCCNC(=O)OCC#CI [3-iodo-2-propynyl butylcarbamate (IPBC)] | 88.2%
CCOC(=O)c1c(C)oc2ncnc(NCc3ccccc3Cl)c12 + CCCCNC(=O)OCC#CI [3-iodo-2-propynyl butylcarbamate (IPBC)] | 103%
COC(=O)c1c(NC(=O)CSc2nc(O)c3ccccc3n2)sc(C)c1C + CCCCNC(=O)OCC#CI [3-iodo-2-propynyl butylcarbamate (IPBC)] | 96.1%
CCN(c1ccc(-c2csc(N3CCN(C)CC3)n2)cc1)S(C)(=O)=O + CCCCNC(=O)OCC#CI [3-iodo-2-propynyl butylcarbamate (IPBC)] | 85.1%
CCN(CC)[S](=O)(=O)C1=CC(=CC=C1C)C/2=N/N(CC(=O)NC3=CC=C(C=C3)C(C)=O)C(=O)/C=C2 + CCCCNC(=O)OCC#CI [3-iodo-2-propynyl butylcarbamate (IPBC)] | 75.8%
CCOc1ccc(NC(=O)C2CCCCN2S(=O)(=O)c2ccc(Br)cc2)cc1 (stereo not given) + CCCCNC(=O)OCC#CI [3-iodo-2-propynyl butylcarbamate (IPBC)] | 88.2%

Already shown: an excerpt of the list.
Compound | growth
Cc1nc(Cl)cc(NCC2COc3ccccc3O2)n1 (stereo not given) + CCCCNC(=O)OCC#CI [3-iodo-2-propynyl butylcarbamate (IPBC)] | 88.2%
CCOC(=O)c1c(C)oc2ncnc(NCc3ccccc3Cl)c12 + CCCCNC(=O)OCC#CI [3-iodo-2-propynyl butylcarbamate (IPBC)] | 103%

Following part:

Compound | growth
COc1cc(NC(=O)c2cccnc2Sc2ccccc2)cc(OC)c1 + CCCCNC(=O)OCC#CI [3-iodo-2-propynyl butylcarbamate (IPBC)] | 99.1%
COc1ccccc1NC(=O)CN(C)S(=O)(=O)c1ccc2c(c1)n(C)c(=O)c(=O)n2C + CCCCNC(=O)OCC#CI [3-iodo-2-propynyl butylcarbamate (IPBC)] | 107%
CC(C)CCN(Cc1ccco1)S(=O)(=O)c1ccc2c(c1)C(C)(C)C(=O)N2C + CCCCNC(=O)OCC#CI [3-iodo-2-propynyl butylcarbamate (IPBC)] | 88.8%
CCOC(=O)C(Sc1nnc2ccccn12)c1ccccc1 (stereo not given) + CCCCNC(=O)OCC#CI [3-iodo-2-propynyl butylcarbamate (IPBC)] | 101%
Cc1nc2ccc(S(=O)(=O)NC(CC(C)C)C(=O)N3CCCCCC3)cc2s1 (stereo not given) + CCCCNC(=O)OCC#CI [3-iodo-2-propynyl butylcarbamate (IPBC)] | 97.7%
CC(C)CN1\C(=N/[S](=O)(=O)C2=CC(=CC=C12)C(=O)N(C)CC3=CC=CC=C3)C + CCCCNC(=O)OCC#CI [3-iodo-2-propynyl butylcarbamate (IPBC)] | 92.9%
COc1cc(OC)c(NS(=O)(=O)c2cc3c(cc2C)N(C(C)=O)CCO3)cc1Cl + CCCCNC(=O)OCC#CI [3-iodo-2-propynyl butylcarbamate (IPBC)] | 100%
CCN(CC(=O)Nc1ccc(C(=O)Nc2ccc(OC)cc2)cc1)Cc1ccc(Cl)s1 + CCCCNC(=O)OCC#CI [3-iodo-2-propynyl butylcarbamate (IPBC)] | 73.2%
COc1ccc(Br)cc1CNC(=O)CN1C(=O)CSc2nc(C)cc(C)c21 + CCCCNC(=O)OCC#CI [3-iodo-2-propynyl butylcarbamate (IPBC)] | 106%
Cc1ccc(NC(=O)C(CC(C)C)NS(=O)(=O)c2ccc3c(c2)oc(=O)n3C)c(C)c1 (stereo not given) + CCCCNC(=O)OCC#CI [3-iodo-2-propynyl butylcarbamate (IPBC)] | 88.5%
CC1Cc2cc(S(N)(=O)=O)ccc2N1Cc1cccc(C(F)(F)F)c1 (stereo not given) + CCCCNC(=O)OCC#CI [3-iodo-2-propynyl butylcarbamate (IPBC)] | 99.1%
COC(=O)c1ccc(CSc2nc(N)c3ccsc3n2)cc1 + CCCCNC(=O)OCC#CI [3-iodo-2-propynyl butylcarbamate (IPBC)] | 94.5%
COC(=O)C(O)(c1cn(C)c2ccccc12)C(F)(F)F (stereo not given) + CCCCNC(=O)OCC#CI [3-iodo-2-propynyl butylcarbamate (IPBC)] | 110%
CCC(C)c1ccc(NC(=O)c2cnn3c(C(F)F)cc(C)nc23)cc1 (stereo not given) + CCCCNC(=O)OCC#CI [3-iodo-2-propynyl butylcarbamate (IPBC)] | 95.2%
CS(=O)(=O)N1CCC(C(=O)Nc2cc(-c3cc(Br)ccc3Cl)[nH]n2)CC1 + CCCCNC(=O)OCC#CI [3-iodo-2-propynyl butylcarbamate (IPBC)] | 110%
CN(C)c1cccc(C(=O)OCc2cn3cc(Cl)ccc3n2)c1 + CCCCNC(=O)OCC#CI [3-iodo-2-propynyl butylcarbamate (IPBC)] | 86.6%
N#Cc1ccccc1S(=O)(=O)N1CCN(C(=O)COc2ccccc2C(F)(F)F)CC1 + CCCCNC(=O)OCC#CI [3-iodo-2-propynyl butylcarbamate (IPBC)] | 98.4%
CCOC(=O)c1cn(CC(=O)Nc2cc(C)cc(C)c2)nn1 + CCCCNC(=O)OCC#CI [3-iodo-2-propynyl butylcarbamate (IPBC)] | 90.3%
FC(F)(F)c1cnc(SCc2noc(-c3ccsc3)n2)c(Cl)c1 + CCCCNC(=O)OCC#CI [3-iodo-2-propynyl butylcarbamate (IPBC)] | 95.5%
FC(F)(F)CNC(=O)C1=CC=CC=C1NC(=O)CN2C(=O)\C=C/N(CC3=CC=CC=C3)C2=O + CCCCNC(=O)OCC#CI [3-iodo-2-propynyl butylcarbamate (IPBC)] | 96.4%
